US20200046836A1, “Terpene Carrier” (priority 2015, published 2020)
Some results were stated once for a whole list of compounds, not compound by compound.

Test: Amount of lipophilic active ingredient that the carrier can hold in solution
Assay type: physicochemical
Conditions: for amount of lipophilic active ingredient carried by PPG/G mixtures: carrier propylene glycol/glycerin; for solubility in terpene carriers: also printed over 15%, over 20% or over 25%

Row | Structure (SMILES) | amount of lipophilic active ingredient carried by PPG/G mixtures | solubility in terpene carriers
1 | CCCCCc1cc(O)c2c(c1)OC(C)(CCC=C(C)C)C=C2 (stereo not drawn) [CBC, cannabichromene] | less than 10 % by weight | greater than 10 % by weight
2 | CCCCCc1cc(O)c2c(c1)OC(C)(C)[C@@H]1CCC(C)=C[C@@H]21 [THC, tetrahydrocannabinol] | less than 10 % by weight | greater than 10 % by weight
3 | CCCCCc1cc(O)c(C/C=C(\C)CCC=C(C)C)c(O)c1 [CBG, cannabigerol] | less than 10 % by weight | greater than 10 % by weight
